From patent US8119681B2, “2-[1-phenyl-5-hydroxy or methoxy-4alpha-methyl-hexahydrocyclopenta [ƒ]indazole-5-YL]ethyl phenyl derivatives as glucocorticoid receptor ligands” (Merck Sharp & Dohme Corp., priority 2006, dated 2012)
Some entries share one result that the patent states for a list of compounds.

Tests used:
[1] = molecular target: T1, glucocorticoid receptor (GR) (Homo sapiens, UniProt P04150); test: Ligand binding assay (GR BIND), 3H-dexamethasone displacement, HeLa cell lysate; settings: calculated using DEX as a reference
T1 construct: endogenous in cells; host or cells: HeLa (ATCC) cell lysate supernatant
T1 sequence (P04150 1-777): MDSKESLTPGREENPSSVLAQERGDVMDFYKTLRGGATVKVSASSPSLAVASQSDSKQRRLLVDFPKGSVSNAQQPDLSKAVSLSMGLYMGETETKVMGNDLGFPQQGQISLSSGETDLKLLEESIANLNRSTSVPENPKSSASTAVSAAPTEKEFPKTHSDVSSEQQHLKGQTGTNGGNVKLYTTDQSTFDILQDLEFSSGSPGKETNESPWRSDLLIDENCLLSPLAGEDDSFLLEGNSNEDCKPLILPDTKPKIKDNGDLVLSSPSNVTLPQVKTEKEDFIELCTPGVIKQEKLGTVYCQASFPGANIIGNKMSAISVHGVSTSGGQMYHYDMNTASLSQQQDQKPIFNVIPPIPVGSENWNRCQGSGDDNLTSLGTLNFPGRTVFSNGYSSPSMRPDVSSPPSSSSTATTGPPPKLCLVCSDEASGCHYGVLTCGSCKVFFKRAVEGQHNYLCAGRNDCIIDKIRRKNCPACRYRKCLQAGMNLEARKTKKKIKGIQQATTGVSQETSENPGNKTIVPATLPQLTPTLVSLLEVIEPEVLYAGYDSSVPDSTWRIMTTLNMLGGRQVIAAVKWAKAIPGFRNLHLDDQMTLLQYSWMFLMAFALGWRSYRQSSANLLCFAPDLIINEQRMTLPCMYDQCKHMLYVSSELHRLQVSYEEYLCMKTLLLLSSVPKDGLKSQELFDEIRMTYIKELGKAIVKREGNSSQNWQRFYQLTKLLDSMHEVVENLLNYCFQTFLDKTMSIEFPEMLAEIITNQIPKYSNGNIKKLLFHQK
Summary of the method: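 HeLa cell lysate supernatant in TEGM (pH 7.2, molybdate) incubated overnight at 4 °C with 3H-dexamethasone trace (6 nM stock) and serially diluted compound, 2% EtOH final. Bound receptor captured on hydroxylapatite, filtered and counted by scintillation; IC50 calculated with dexamethasone as reference.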

human GR = molecular target: T2, human GR (Homo sapiens, UniProt P04150); test: Trans-Activation Modulation of Glucocorticoid Receptor (GRAMMER), MMTV-LUC reporter gene; type: cell-based; set-up: endogenous in cells; settings: GRAMMER versus GITAR
T2 sequence (P04150 1-777): T1 sequence (P04150 1-777)

SMILES | IC50 [1] [nM] | maximal transactivation activity compared with maximal transrepression activity (human GR)
COC(=O)C(C)(C)NC(=O)c1c(F)cccc1CC[C@]1(O)CCC2=Cc3c(cnn3-c3ccc(F)cc3)C[C@@]21C [Example 41, methyl N-(2-fluoro-6-{2-[(4αS,5R)-1-(4-fluorophenyl)-5-hydroxy-4α-methyl-1,4,4α,5,6,7-hexahydrocyclopenta[f]indazol-5-yl]ethyl}benzoyl)-2-methylalaninate] | < 1000 | maximal transactivation activity less then maximal transrepression activity
CC1(NC(=O)c2c(F)cccc2CC[C@]2(O)CCC3=Cc4c(cnn4-c4ccc(F)cc4)C[C@@]32C)CC1 [Example 63, 2-fluoro-6-{2-[(4αS,5R)-1-(4-fluorophenyl)-5-hydroxy-4α-methyl-1,4,4α,5,6,7-hexahydrocyclopenta[f]indazol-5-yl]ethyl}-N-(1-methylcyclopropyl)benzamide] | < 1000 | maximal transactivation activity less then maximal transrepression activity
CC(C)CNC(=O)c1ccccc1CC[C@]1(O)CCC2=Cc3c(cnn3-c3ccc(F)cc3)C[C@@]21C [Example 29, 2-{2-[(4αS,5R)-1-(4-fluorophenyl)-5-hydroxy-4α-methyl-1,4,4α,5,6,7-hexahydrocyclopenta[f]indazol-5-yl]ethyl}-N-isobutylbenzamide] | < 1000 | maximal transactivation activity less then maximal transrepression activity
CC(C)NC(=O)c1c(F)cccc1CC[C@]1(O)CCC2=Cc3c(cnn3-c3ccc(F)cc3)C[C@@]21C [Example 67, 2-fluoro-6-{2-[(4αS,5R)-1-(4-fluorophenyl)-5-hydroxy-4α-methyl-1,4,4α,5,6,7-hexahydrocyclopenta[f]indazol-5-yl]ethyl}-N-isopropylbenzamide] | < 1000 | maximal transactivation activity less then maximal transrepression activity
C[C@]12Cc3cnn(-c4ccc(F)cc4)c3C=C1CC[C@@]2(O)CCc1cccc(F)c1CNS(=O)(=O)CC(F)(F)F [Example 86, 2,2,2-trifluoro-N-(2-fluoro-6-{2-[(4αS,5R)-1-(4-fluorophenyl)-5-hydroxy-4α-methyl-1,4,4α,5,6,7-hexahydrocyclopenta[f]indazol-5-yl]ethyl}benzyl)ethanesulfonamide] | < 1000 | maximal transactivation activity less then maximal transrepression activity
COC(=O)[C@@H](C)NC(=O)c1ccccc1CC[C@]1(O)CCC2=Cc3c(cnn3-c3ccc(F)cc3)C[C@@]21C [Example 72, methyl N-(2-{2-[(4αS,5R)-1-(4-fluorophenyl)-5-hydroxy-4α-methyl-1,4,4α,5,6,7-hexahydrocyclopenta[f]indazol-5-yl]ethyl}benzoyl)-D-alaninate] | < 1000 | maximal transactivation activity less then maximal transrepression activity
CC(C)S(=O)(=O)NCc1c(F)cccc1CC[C@]1(O)CCC2=Cc3c(cnn3-c3ccc(F)cc3)C[C@@]21C [Example 83, N-(2-fluoro-6-{2-[(4αS,5R)-1-(4-fluorophenyl)-5-hydroxy-4α-methyl-1,4,4α,5,6,7-hexahydrocyclopenta[f]indazol-5-yl]ethyl}benzyl)propane-2-sulfonamide] | < 1000 | maximal transactivation activity less then maximal transrepression activity
CC(C)S(=O)(=O)c1ccccc1CC[C@]1(O)CCC2=Cc3c(cnn3-c3ccc(F)cc3)C[C@@]21C [Example 120, (4αS,5R)-1-(4-fluorophenyl)-5-{2-[2-(isopropylsulfonyl)phenyl]ethyl}-4α-methyl-1,4,4α,5,6,7-hexahydrocyclopenta[f]indazol-5-ol] | < 1000 | maximal transactivation activity less then maximal transrepression activity
COC(=O)Nc1c(F)cccc1CC[C@]1(O)CCC2=Cc3c(cnn3-c3ccc(F)cc3)C[C@@]21C [Example 123, methyl (2-fluoro-6-{2-[(4αS,5R)-1-(4-fluorophenyl)-5-hydroxy-4α-methyl-1,4,4α,5,6,7-hexahydrocyclopenta[f]indazol-5-yl]ethyl}phenyl)carbamate] | < 1000 | maximal transactivation activity less then maximal transrepression activity
C[C@]12Cc3cnn(-c4ccc(F)c(F)c4)c3C=C1CC[C@@]2(O)CCc1ccccc1S(N)(=O)=O [Example 142, 2-{2-[(4αS,5R)-1-(3,4-difluorophenyl)-5-hydroxy-4α-methyl-1,4,4α,5,6,7-hexahydrocyclopenta[f]indazol-5-yl]ethyl}benzenesulfonamide] | < 1000 | maximal transactivation activity less then maximal transrepression activity
COC(=O)C(C)(C)NC(=O)c1ccccc1CC[C@]1(O)CCC2=Cc3c(cnn3-c3ccc(F)cc3)C[C@@]21C [Example 52, methyl N-(2-{2-[(4αS,5R)-1-(4-fluorophenyl)-5-hydroxy-4α-methyl-1,4,4α,5,6,7-hexahydrocyclopenta[f]indazol-5-yl]ethyl}benzoyl)-2-methylalaninate] | < 1000 | maximal transactivation activity less then maximal transrepression activity
C[C@]12Cc3cnn(-c4ccc(F)cc4)c3C=C1CC[C@@]2(O)CCc1ccccc1CNS(=O)(=O)CC(F)(F)F [Example 90, 2,2,2-trifluoro-N-(2-{2-[(4αS,5R)-1-(4-fluorophenyl)-5-hydroxy-4α-methyl-1,4,4α,5,6,7-hexahydrocyclopenta[f]indazol-5-yl]ethyl}benzyl)ethanesulfonamide] | < 1000 | maximal transactivation activity less then maximal transrepression activity
C[C@]12Cc3cnn(-c4ccc(F)cc4)c3C=C1CC[C@@]2(O)CCc1ccccc1S(N)(=O)=O [Example 22, 2-{2-[(4αS,5R)-1-(4-fluorophenyl)-5-hydroxy-4α-methyl-1,4,4α,5,6,7-hexahydrocyclopenta[f]indazol-5-yl]ethyl}benzenesulfonamide] | < 1000 | maximal transactivation activity less then maximal transrepression activity
CO[C@@]1(CCc2ccccc2C(N)=O)CCC2=Cc3c(cnn3-c3ccc(F)cc3)C[C@@]21C [Example 165, 2-{2-[(4αS,5R)-1-(4-fluorophenyl)-5-methoxy-4α-methyl-1,4,4α,5,6,7-hexahydrocyclopenta[f]indazol-5-yl]ethyl}benzamide] | < 1000 | maximal transactivation activity less then maximal transrepression activity
C=CCNC(=O)c1c(F)cccc1CC[C@]1(O)CCC2=Cc3c(cnn3-c3ccc(F)cc3)C[C@@]21C [Example 57, N-allyl-2-fluoro-6-{2-[(4αS,5R)-1-(4-fluorophenyl)-5-hydroxy-4α-methyl-1,4,4α,5,6,7-hexahydrocyclopenta[f]indazol-5-yl]ethyl}benzamide] | < 1000 | maximal transactivation activity less then maximal transrepression activity
CCNC(=O)Nc1ccccc1CC[C@]1(O)CCC2=Cc3c(cnn3-c3ccc(F)cc3)C[C@@]21C [Example 13, N-ethyl-N′-(2-{2-[(4αS,5R)-1-(4-fluorophenyl)-5-hydroxy-4α-methyl-1,4,4α,5,6,7-hexahydrocyclopenta[f]indazol-5-yl]ethyl}phenyl)urea] | < 1000 | maximal transactivation activity less then maximal transrepression activity
C[C@]12Cc3cnn(-c4ccc(F)cc4)c3C=C1CC[C@@]2(O)CCc1ccccc1NS(=O)(=O)C1CC1 [Example 15, N-(2-{2-[(4αS,5R)-1-(4-fluorophenyl)-5-hydroxy-4α-methyl-1,4,4α,5,6,7-hexahydrocyclopenta[f]indazol-5-yl]ethyl}phenyl)cyclopropanesulfonamide] | < 1000 | maximal transactivation activity less then maximal transrepression activity
C[C@]12Cc3cnn(-c4ccc(F)c(F)c4)c3C=C1CC[C@@]2(O)CCc1cc(Cl)ccc1C(N)=O [Example 177, 4-chloro-2-{2-[(4αS,5R)-1-(3,4-difluorophenyl)-5-hydroxy-4α-methyl-1,4,4α,5,6,7-hexahydrocyclopenta[f]indazol-5-yl]ethyl}benzamide] | < 1000 | maximal transactivation activity less then maximal transrepression activity
